From PubChem BioAssay AID342 (DTP/NCI, 2004)
The list is a part of this screen's results and no random one: it gathers some chemical classes. Not every dose and run of a compound is shown. T/C gives the treated animals as a percentage of the vehicle group. Schedule codes are those of the source, taken here to give the interval after Q, in days (D) or hours (H), and the number of doses after X. Some schedules carry Z or #; the key to these is not given. Some entries show no survivor count and are marked so; the dose need not have been tolerated. Some T/C values carry the count of animals alive at the toxicity check; where neither a count nor a note follows, no animal had died by that day. Some entries give survivors of the animals treated and no T/C: the source holds a T/C of zero for them, seemingly a mark for toxic or unscored doses. Counts of survivors are from the toxicity check, whose day is not always given; animals may have died later.

Tested on: Swiss mice, Sarcoma 180 sc, mean tumor weight T/C
Experiment: NCI In Vivo Anticancer Drug Screen. Data for tumor model Sarcoma 180 (subcutaneous) in Swiss mice
Settings: T/C endpoint: mean tumor weight, higher T/C = larger tumour
Protocol: The antitumor activity of compounds was measured in mice bearing transplantable tumors. Survival or tumor size were measured and the results are expressed as the measurement made in the treated group (T) divided by the measurement made in the vehicle treated control group (C). The tumor model used in this assay is Sarcoma 180 (subcutaneous) in Swiss mice

[1] = dose: 25.0 mg/kg/injection, schedule: Q#A X014 (ip), vehicle: methylcellulose (MC), evaluated on day 8
[2] = dose: 37.5 mg/kg/injection, schedule: Q#A X014 (ip), vehicle: methylcellulose (MC)

With `NC(CC(=O)O)c1cccc(N(CCCl)CCCl)c1` (stereo not given) the T/C (dose: 11.0 mg/kg/injection, schedule: Q#A X014 (ip), vehicle: carboxymethylcellulose (CMC), evaluated on day 8) was 64 % of control, the T/C (dose: 11.0 mg/kg/injection, schedule: Q#A X014 (ip), vehicle: methylcellulose (MC), evaluated on day 8) was 28 % of control [5 of 6 alive] and the T/C (dose: 16.5 mg/kg/injection, schedule: Q#A X014 (ip), vehicle: carboxymethylcellulose (CMC), evaluated on day 8) was 42 % of control [5 of 6 alive]. For the same compound, the T/C (dose: 16.5 mg/kg/injection, schedule: Q#A X014 (ip), vehicle: methylcellulose (MC), evaluated on day 8) was 16 % of control, the T/C (dose: 25.0 mg/kg/injection, schedule: Q#A X014 (ip), vehicle: carboxymethylcellulose (CMC), evaluated on day 8) was 6 % of control and the T/C [1] was 17 % of control [5 of 6 alive]. For the same compound, the survivor count [2] was 3 of 6.
With `CCOP(C)(=O)OCCCCOP(C)(=O)OCC` (stereo not given) the T/C (dose: 10.0 mg/kg/injection, schedule: Q01DX007 (ip), vehicle: saline, evaluation day not shown) was 90 % of control [survivor count not shown], the T/C (dose: 15.0 mg/kg/injection, schedule: Q01DX007 (ip), vehicle: saline, evaluation day not shown) was 82 % of control [survivor count not shown] and the T/C (dose: 20.0 mg/kg/injection, schedule: Q01DX007 (ip), vehicle: saline, evaluation day not shown) was 84 % of control [survivor count not shown].
With `CCOP(=O)(NCCCO)N(CCCl)CCCl` (stereo not given) the T/C (dose: 150.0 mg/kg/injection, schedule: Q#A X014 (ip), vehicle: methylcellulose (MC), evaluated on day 8) was 69 % of control and the survivor count (dose: 200.0 mg/kg/injection, schedule: Q#A X014 (ip), vehicle: methylcellulose (MC)) was 3 of 6.
For `O=[N+]([O-])c1cc([N+](=O)[O-])c(C(F)(F)F)c([N+](=O)[O-])c1O`, the T/C (dose: 25.0 mg/kg/injection, schedule: Q01DX007 (ip), vehicle: saline, evaluation day not shown) was 146 % of control [survivor count not shown] and the T/C (dose: 50.0 mg/kg/injection, schedule: Q01DX007 (ip), vehicle: saline, evaluation day not shown) was 101 % of control [survivor count not shown].
`NC(Cc1ccc(N(CCCl)CCCl)c(Cl)c1)C(=O)O` (stereo not given) was tested, and the T/C (dose: 0.31 mg/kg/injection, schedule: Q#A X014 (ip), vehicle: methylcellulose (MC), evaluated on day 8) was 113 % of control, the T/C (dose: 0.62 mg/kg/injection, schedule: Q#A X014 (ip), vehicle: methylcellulose (MC), evaluated on day 8) was 86 % of control and the T/C (dose: 1.25 mg/kg/injection, schedule: Q#A X014 (ip), vehicle: methylcellulose (MC), evaluated on day 8) was 45 % of control [5 of 6 alive]. For the same compound, the T/C (dose: 2.2 mg/kg/injection, schedule: Q#A X014 (ip), vehicle: methylcellulose (MC), evaluated on day 8) was 34 % of control [5 of 6 alive], the T/C (dose: 2.2 mg/kg/injection, schedule: Q#A X014 (ip), vehicle: saline, evaluated on day 8) was 59 % of control and the T/C (dose: 3.5 mg/kg/injection, schedule: Q#A X014 (ip), vehicle: saline, evaluated on day 8) was 37 % of control. The T/C (dose: 5.0 mg/kg/injection, schedule: Q#A X014 (ip), vehicle: saline, evaluated on day 8) was 22 % of control and the T/C (dose: 7.5 mg/kg/injection, schedule: Q#A X014 (ip), vehicle: saline, evaluated on day 8) was 3 % of control [5 of 6 alive].
In the case of `O[C@H](CNCCCl)[C@H](O)CNCCCl`, the T/C (dose: 3.8 mg/kg/injection, schedule: Q#A X014 (ip), vehicle: carboxymethylcellulose (CMC), evaluated on day 8) was 89 % of control, the T/C (dose: 5.65 mg/kg/injection, schedule: Q#A X014 (ip), vehicle: carboxymethylcellulose (CMC), evaluated on day 8) was 73 % of control and the T/C (dose: 8.5 mg/kg/injection, schedule: Q#A X014 (ip), vehicle: carboxymethylcellulose (CMC), evaluated on day 8) was 48 % of control. The T/C (dose: 12.0 mg/kg/injection, schedule: Q01DX007 (ip), vehicle: carboxymethylcellulose (CMC), evaluated on day 8) was 56 % of control, the T/C (dose: 12.5 mg/kg/injection, schedule: Q#A X014 (ip), vehicle: carboxymethylcellulose (CMC), evaluated on day 8) was 45 % of control and the T/C (dose: 20.0 mg/kg/injection, schedule: Q01DX007 (ip), vehicle: carboxymethylcellulose (CMC), evaluated on day 8) was 48 % of control [5 of 6 alive].
For `O=[N+]([O-])c1ccc(Oc2ccccc2[N+](=O)[O-])c([N+](=O)[O-])c1`, the T/C (dose: 74.0 mg/kg/injection, schedule: Q#A X014 (ip), vehicle: methylcellulose (MC), evaluated on day 8) was 97 % of control, the T/C (dose: 111.0 mg/kg/injection, schedule: Q#A X014 (ip), vehicle: methylcellulose (MC), evaluated on day 8) was 68 % of control [5 of 6 alive] and the T/C (dose: 166.5 mg/kg/injection, schedule: Q#A X014 (ip), vehicle: methylcellulose (MC), evaluated on day 8) was 77 % of control. For the same compound, the T/C (dose: 166.5 mg/kg/injection, schedule: Q#A X014 (ip), vehicle: saline, evaluated on day 8) was 54 % of control, the T/C (dose: 250.0 mg/kg/injection, schedule: Q#A X014 (ip), vehicle: methylcellulose (MC), evaluated on day 8) was 38 % of control and the T/C (dose: 250.0 mg/kg/injection, schedule: Q#A X014 (ip), vehicle: saline, evaluated on day 8) was 47 % of control [5 of 6 alive]. The T/C (dose: 375.0 mg/kg/injection, schedule: Q#A X014 (ip), vehicle: saline, evaluated on day 8) was 49 % of control and the T/C (dose: 562.5 mg/kg/injection, schedule: Q#A X014 (ip), vehicle: saline, evaluated on day 8) was 31 % of control [5 of 6 alive].
For `CN(CCCl)/N=N/c1nc2nc(N)[nH]c(=O)c2[nH]1`, the T/C (dose: 12.0 mg/kg/injection, schedule: Q#A X014 (ip), vehicle: methylcellulose (MC), evaluated on day 8) was 111 % of control, the T/C (dose: 17.5 mg/kg/injection, schedule: Q#A X014 (ip), vehicle: methylcellulose (MC), evaluated on day 8) was 91 % of control and the T/C [1] was 82 % of control. The survivor count [2] was 2 of 6.
